The text below walks through data of paper PMC6158247.

Sequences of proteins named here, by UniProt entry; tags and fusion partners are left off.
UniProt Q4AC94: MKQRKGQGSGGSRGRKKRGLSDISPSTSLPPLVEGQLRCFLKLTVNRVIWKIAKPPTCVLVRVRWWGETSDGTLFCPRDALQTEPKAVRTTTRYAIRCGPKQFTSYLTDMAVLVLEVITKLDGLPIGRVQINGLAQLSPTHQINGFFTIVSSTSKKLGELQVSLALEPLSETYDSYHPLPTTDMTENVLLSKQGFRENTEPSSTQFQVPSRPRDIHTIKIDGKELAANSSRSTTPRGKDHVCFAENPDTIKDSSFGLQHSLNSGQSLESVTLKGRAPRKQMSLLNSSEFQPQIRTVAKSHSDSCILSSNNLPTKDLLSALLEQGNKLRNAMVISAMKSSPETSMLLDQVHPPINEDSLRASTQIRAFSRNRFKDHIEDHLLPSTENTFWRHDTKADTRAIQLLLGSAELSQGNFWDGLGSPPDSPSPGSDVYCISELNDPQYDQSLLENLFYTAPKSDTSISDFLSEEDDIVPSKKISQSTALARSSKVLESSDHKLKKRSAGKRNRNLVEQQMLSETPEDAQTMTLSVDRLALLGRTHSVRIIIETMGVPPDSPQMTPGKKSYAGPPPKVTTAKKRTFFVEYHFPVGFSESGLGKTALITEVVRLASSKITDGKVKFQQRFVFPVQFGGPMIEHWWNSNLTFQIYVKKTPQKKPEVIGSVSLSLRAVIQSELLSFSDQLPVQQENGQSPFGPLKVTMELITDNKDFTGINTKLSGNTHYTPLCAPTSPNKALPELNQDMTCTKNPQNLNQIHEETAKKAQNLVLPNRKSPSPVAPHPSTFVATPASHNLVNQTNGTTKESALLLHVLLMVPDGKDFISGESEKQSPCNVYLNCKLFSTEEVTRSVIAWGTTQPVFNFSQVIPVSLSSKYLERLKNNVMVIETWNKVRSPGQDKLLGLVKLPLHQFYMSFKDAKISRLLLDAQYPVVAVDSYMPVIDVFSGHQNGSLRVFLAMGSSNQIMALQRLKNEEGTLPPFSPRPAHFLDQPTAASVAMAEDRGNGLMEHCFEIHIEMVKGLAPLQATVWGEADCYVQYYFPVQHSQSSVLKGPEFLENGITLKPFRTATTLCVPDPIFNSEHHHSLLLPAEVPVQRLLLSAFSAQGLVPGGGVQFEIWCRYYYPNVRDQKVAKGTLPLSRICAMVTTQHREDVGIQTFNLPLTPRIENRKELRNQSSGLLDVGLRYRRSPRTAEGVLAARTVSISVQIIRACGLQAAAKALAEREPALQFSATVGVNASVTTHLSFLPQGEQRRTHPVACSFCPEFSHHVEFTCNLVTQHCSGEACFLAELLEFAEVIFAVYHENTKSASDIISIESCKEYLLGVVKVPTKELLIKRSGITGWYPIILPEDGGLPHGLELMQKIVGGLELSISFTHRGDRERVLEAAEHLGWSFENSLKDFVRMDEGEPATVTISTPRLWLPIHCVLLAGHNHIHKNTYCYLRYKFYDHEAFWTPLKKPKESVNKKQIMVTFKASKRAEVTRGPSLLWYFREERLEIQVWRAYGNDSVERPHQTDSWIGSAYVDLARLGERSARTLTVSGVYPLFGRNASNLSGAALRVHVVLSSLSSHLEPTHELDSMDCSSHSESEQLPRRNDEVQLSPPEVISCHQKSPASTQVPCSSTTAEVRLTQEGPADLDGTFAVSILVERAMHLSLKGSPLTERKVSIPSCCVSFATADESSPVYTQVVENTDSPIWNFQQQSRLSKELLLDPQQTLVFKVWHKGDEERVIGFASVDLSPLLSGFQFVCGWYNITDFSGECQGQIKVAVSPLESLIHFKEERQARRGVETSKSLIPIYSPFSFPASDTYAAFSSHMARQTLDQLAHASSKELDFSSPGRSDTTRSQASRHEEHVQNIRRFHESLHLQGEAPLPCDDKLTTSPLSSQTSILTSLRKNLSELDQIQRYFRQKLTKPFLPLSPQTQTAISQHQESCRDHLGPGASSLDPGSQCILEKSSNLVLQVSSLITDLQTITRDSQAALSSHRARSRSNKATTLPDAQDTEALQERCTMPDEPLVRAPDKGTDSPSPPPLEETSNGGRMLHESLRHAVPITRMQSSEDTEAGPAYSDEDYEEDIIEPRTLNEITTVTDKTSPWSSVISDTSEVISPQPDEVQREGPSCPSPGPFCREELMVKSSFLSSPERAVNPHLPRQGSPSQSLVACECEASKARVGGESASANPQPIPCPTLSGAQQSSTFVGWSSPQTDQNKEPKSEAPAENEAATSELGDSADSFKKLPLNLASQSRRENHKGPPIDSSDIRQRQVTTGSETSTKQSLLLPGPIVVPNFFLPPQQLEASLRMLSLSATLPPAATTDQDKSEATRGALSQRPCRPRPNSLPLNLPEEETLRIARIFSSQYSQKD

No constants are given. Whether binding was seen depends on the method and setting. Binding seen in cells or lysates may run through a third protein. Some binding calls cover weakened binding; strength is not graded here. For some assays here: Where a sequence is shown, tags or fusion partners need not be part of it.

Assay [1] deals with Talpid3, full-length (1–1533), N-terminally Flag-tagged (human) (UniProt Q9BVV6). The assay can be described thus: co-IP; Fig. 4d: 293T cells stably expressing N-terminally Myc-tagged C2CD3 and N-terminally Flag-tagged Talpid3; immunoprecipitated with anti-Flag antibody; eluates immunoblotted. On the technique in general: In western blotting, separated proteins are transferred to a membrane and probed.

Assay [2] has as its target T1, Talpid3 residues 466–1533, N-terminally Flag-tagged (human) (UniProt Q9BVV6).
T1 sequence: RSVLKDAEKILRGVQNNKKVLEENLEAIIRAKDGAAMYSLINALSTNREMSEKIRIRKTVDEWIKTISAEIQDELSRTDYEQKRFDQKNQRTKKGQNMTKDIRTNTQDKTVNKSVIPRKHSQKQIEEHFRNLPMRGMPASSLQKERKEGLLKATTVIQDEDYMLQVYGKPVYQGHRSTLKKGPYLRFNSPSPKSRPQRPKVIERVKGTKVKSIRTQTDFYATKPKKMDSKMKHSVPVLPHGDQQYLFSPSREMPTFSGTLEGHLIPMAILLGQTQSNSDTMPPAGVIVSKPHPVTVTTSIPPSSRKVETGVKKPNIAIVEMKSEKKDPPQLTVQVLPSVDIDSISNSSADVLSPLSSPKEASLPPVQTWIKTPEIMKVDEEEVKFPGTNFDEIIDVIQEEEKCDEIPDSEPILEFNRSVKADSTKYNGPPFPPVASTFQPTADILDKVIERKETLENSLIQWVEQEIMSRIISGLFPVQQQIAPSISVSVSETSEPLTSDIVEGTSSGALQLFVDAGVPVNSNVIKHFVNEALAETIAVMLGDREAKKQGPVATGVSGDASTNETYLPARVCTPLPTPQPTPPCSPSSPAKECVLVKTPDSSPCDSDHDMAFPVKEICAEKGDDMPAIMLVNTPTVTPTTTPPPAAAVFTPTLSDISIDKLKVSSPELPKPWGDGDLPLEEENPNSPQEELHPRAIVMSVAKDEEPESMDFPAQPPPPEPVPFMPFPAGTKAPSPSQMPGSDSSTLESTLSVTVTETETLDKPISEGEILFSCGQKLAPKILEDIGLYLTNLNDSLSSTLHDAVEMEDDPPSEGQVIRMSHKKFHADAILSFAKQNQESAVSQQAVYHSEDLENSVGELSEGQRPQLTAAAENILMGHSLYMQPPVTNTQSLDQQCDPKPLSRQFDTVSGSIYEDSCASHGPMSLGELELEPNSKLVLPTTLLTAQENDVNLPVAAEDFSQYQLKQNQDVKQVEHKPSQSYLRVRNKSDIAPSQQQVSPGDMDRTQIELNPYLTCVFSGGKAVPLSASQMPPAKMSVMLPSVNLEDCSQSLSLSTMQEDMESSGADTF
The description is as above.

Assay [3] has as its target T2, CEP120 (UniProt Q8N960).
T2 sequence: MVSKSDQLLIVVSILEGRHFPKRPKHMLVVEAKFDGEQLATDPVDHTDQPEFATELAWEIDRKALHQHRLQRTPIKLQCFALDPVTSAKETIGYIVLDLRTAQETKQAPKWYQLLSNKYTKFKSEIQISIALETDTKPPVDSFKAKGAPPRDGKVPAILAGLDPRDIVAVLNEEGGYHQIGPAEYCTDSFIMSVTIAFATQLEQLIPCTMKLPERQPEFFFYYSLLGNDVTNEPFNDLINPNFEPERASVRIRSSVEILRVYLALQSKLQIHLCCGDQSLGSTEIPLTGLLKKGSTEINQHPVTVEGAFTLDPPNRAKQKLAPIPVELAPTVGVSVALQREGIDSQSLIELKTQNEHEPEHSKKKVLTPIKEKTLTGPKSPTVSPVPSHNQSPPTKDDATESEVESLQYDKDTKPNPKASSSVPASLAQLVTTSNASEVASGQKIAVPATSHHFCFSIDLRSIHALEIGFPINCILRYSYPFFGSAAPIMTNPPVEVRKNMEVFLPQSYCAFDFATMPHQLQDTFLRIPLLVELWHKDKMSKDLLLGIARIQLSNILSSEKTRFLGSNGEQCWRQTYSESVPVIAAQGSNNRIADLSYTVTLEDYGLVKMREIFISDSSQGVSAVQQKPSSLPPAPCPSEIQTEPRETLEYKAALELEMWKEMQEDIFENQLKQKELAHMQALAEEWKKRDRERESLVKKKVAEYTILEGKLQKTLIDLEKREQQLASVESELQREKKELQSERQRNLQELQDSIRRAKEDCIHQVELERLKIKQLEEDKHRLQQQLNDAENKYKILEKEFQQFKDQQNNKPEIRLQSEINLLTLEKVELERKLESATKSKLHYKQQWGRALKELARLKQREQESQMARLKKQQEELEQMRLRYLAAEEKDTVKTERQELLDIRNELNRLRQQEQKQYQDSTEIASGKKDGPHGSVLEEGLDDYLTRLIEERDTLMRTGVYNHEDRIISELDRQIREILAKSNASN
The assay can be described thus: co-IP; Supplementary Fig. 3: Talpid3 truncations and mutant tested with CEP120; cells lysed in ELB buffer (50 mM Hepes pH 7, 150 mM NaCl, 5 mM EDTA, 0.1% NP-40, 1 mM DTT, 10% glycerol); Flag-CEP120 immunoprecipitated, co-immunoprecipitated Myc-Talpid3 blotted.

Take “C2CD3, N-terminally Myc-tagged (from UniProt Q4AC94 1-2353)”: the binding entry in assay [1] and in assay [2] was “binds” each time.

Take “Talpid3, full-length (1–1533), Myc-tagged (from UniProt Q9BVV6 1-1533)”: in assay [3], the binding result is “binds”.

B1: Talpid3 fragment spanning residues 466–1000, Myc-tagged (domain or fragment, UniProt Q9BVV6 466-1000)
chain: RSVLKDAEKILRGVQNNKKVLEENLEAIIRAKDGAAMYSLINALSTNREMSEKIRIRKTVDEWIKTISAEIQDELSRTDYEQKRFDQKNQRTKKGQNMTKDIRTNTQDKTVNKSVIPRKHSQKQIEEHFRNLPMRGMPASSLQKERKEGLLKATTVIQDEDYMLQVYGKPVYQGHRSTLKKGPYLRFNSPSPKSRPQRPKVIERVKGTKVKSIRTQTDFYATKPKKMDSKMKHSVPVLPHGDQQYLFSPSREMPTFSGTLEGHLIPMAILLGQTQSNSDTMPPAGVIVSKPHPVTVTTSIPPSSRKVETGVKKPNIAIVEMKSEKKDPPQLTVQVLPSVDIDSISNSSADVLSPLSSPKEASLPPVQTWIKTPEIMKVDEEEVKFPGTNFDEIIDVIQEEEKCDEIPDSEPILEFNRSVKADSTKYNGPPFPPVASTFQPTADILDKVIERKETLENSLIQWVEQEIMSRIISGLFPVQQQIAPSISVSVSETSEPLTSDIVEGTSSGALQLFVDAGVPVNSNVIKHFVNEALAE
In the case of B1, in assay [3], the binding result was “binds”.

B2: Talpid3 1–602 fragment, Myc-tagged (domain or fragment, UniProt Q9BVV6 1-602)
chain: MPVKRLREVVSQNHGDHLVLLKDELPCVPPALSANKRLPVGTGTSLNGTSRGSSDLTSARNCYQPLLENPMVSESDFSKDVAVQVLPLDKIEENNKQKANDIFISQYTMGQKDALRTVLKQKAQSMPVFKEVKVHLLEDAGIEKDAVTQETRISPSGIDSATTVAAATAAAIATAAPLIKVQSDLEAKVNSVTELLSKLQETDKHLQRVTEQQTSIQRKQEKLHCHDHEKQMNVFMEQHIRHLEKLQQQQIDIQTHFISAALKTSSFQPVSMPSSRAVEKYSVKPEHPNLGSCNPSLYNTFASKQAPLKEVEDTSFDKQKSPLETPAPRRFAPVPVSRDDELSKRENLLEEKENMEVSCHRGNVRLLEQILNNNDSLTRKSESSNTTSLTRSKIGWTPEKTNRFPSCEELETTKVTMQKSDDVLHDLGQKEKETNSMVQPKESLSMLKLPDLPQNSVKLQTTNTTRSVLKDAEKILRGVQNNKKVLEENLEAIIRAKDGAAMYSLINALSTNREMSEKIRIRKTVDEWIKTISAEIQDELSRTDYEQKRFDQKNQRTKKGQNMTKDIRTNTQDKTVNKSVIPRKHSQKQIEEHFRNLPMRGM
Consider B2, for which the binding result in assay [3] was “binds”.
